Results from the supplement of paper PMC6078165.

Assays:
MDAMB231 = experiment: relative JC-1 red fluorescence (viability) vs pre-drug, monoculture (fraction); higher = more viable cancer cells; conditions: coculture fibroblast: none (monoculture)
Protocol: (§1)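 JC-1 labelled TNBC cells grown in monoculture (density kept equal with unlabelled cancer cells) in 384-well plates in FluoroBrite medium, treated with one of 42 anticancer drugs at 0.1, 1, 10 or 100 uM. JC-1 red fluorescence (mitochondrial integrity, surrogate of apoptotic death) was read by plate reader every 8 h for 72 h. Values are normalised to each well's pre-drug value, with background from alamethicin. The stock of one drug was tenfold lower, so its dose labels may be too high. Monoculture values are repeated alongside each fibroblast plate and are averaged here.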

MDAMB436 = experiment: as above; conditions: coculture fibroblast: none (monoculture)
Protocol: as §1

O=C(O)C1(C(=O)O)CCC1.[NH2-].[NH2-].[Pt+2] [Carboplatin]
relative JC-1 red fluorescence
Conditions	8 h	16 h	24 h	32 h	40 h	48 h	56 h	64 h	72 h
MDAMB231, 0.1 µM	0.715	0.692	0.6055	0.5892	0.547	0.529	0.492	0.51	0.501
MDAMB231, 1 µM	0.666	0.626	0.626	0.558	0.531	0.517	0.501	0.516	0.5226
MDAMB231, 10 µM	0.771	0.807	0.619	0.666	0.605	0.568	0.518	0.513	0.486
MDAMB231, 100 µM	0.6556	0.633	0.634	0.582	0.539	0.543	0.533	0.563	0.573
MDAMB436, 0.1 µM	0.8308	0.72	0.6943	0.6348	0.611	0.594	0.571	0.557	0.558
MDAMB436, 1 µM	0.793	0.743	0.734	0.678	0.673	0.662	0.657	0.651	0.666
MDAMB436, 10 µM	0.8537	0.7555	0.732	0.666	0.651	0.637	0.627	0.615	0.618
MDAMB436, 100 µM	0.75905	0.812	0.856	0.853	0.866	0.895	0.923	0.904	0.845

CCc1c2c(nc3ccc(OC(=O)N4CCC(N5CCCCC5)CC4)cc13)-c1cc3c(c(=O)n1C2)COC(=O)[C@]3(O)CC [Irinotecan]
relative JC-1 red fluorescence
Conditions	8 h	16 h	24 h	32 h	40 h	48 h	56 h	64 h	72 h
MDAMB231, 0.1 µM	0.696	0.6428	0.6109	0.5534	0.5124	0.498	0.4844	0.5007	0.4977
MDAMB231, 1 µM	0.71	0.67	0.662	0.6	0.5641	0.56	0.535	0.559	0.549
MDAMB231, 10 µM	0.7646	0.742	0.686	0.647	0.611	0.599	0.572	0.599	0.594
MDAMB231, 100 µM	0.79	0.8462	0.774	0.8443	0.814	0.8	0.768	0.77	0.762
MDAMB436, 0.1 µM	0.8412	0.7243	0.7341	0.6715	0.659	0.642	0.625	0.631	0.631
MDAMB436, 1 µM	0.8067	0.7554	0.752	0.712	0.695	0.687	0.685	0.684	0.688
MDAMB436, 10 µM	0.884	0.781	0.822	0.778	0.766	0.76	0.762	0.752	0.761
MDAMB436, 100 µM	0.838	0.891	0.9446	0.931	0.962	0.984	0.781	0.835	0.816

COc1cc([C@@H]2c3cc4c(cc3[C@@H](O[C@@H]3O[C@@H]5CO[C@@H](c6cccs6)O[C@H]5[C@H](O)[C@H]3O)[C@H]3COC(=O)[C@H]23)OCO4)cc(OC)c1O [Teniposide]
relative JC-1 red fluorescence
Conditions	8 h	16 h	24 h	32 h	40 h	48 h	56 h	64 h	72 h
MDAMB231, 0.1 µM	0.637	0.59	0.604	0.532	0.493	0.495	0.486	0.52309	0.5423
MDAMB231, 1 µM	0.653	0.629	0.629	0.586	0.55	0.554	0.547	0.583	0.592
MDAMB231, 10 µM	0.713	0.682	0.715	0.71	0.669	0.676	0.673	0.724	0.736
MDAMB231, 100 µM	0.7747	0.787	0.763	0.822	0.804	0.8103	0.83	0.868	0.877
MDAMB436, 0.1 µM	0.805	0.775	0.797	0.771	0.773	0.786	0.787	0.798	0.817
MDAMB436, 1 µM	0.773	0.786	0.8	0.768	0.765	0.773	0.784	0.789	0.803
MDAMB436, 10 µM	0.8323	0.834	0.845	0.793	0.804	0.808	0.8	0.806	0.822
MDAMB436, 100 µM	0.835	0.8998	0.964	0.976	0.877	0.852	0.8036	0.794	0.849

Values are relative to the signal before dosing, not to a vehicle control; the signal also falls without drug.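 The cancer cells are triple-negative breast cancer lines of basal-like or mesenchymal-like type, grown without fibroblasts. A drop in red signal reflects loss of mitochondrial integrity, a stand-in for apoptotic death.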
